{"source": "patent US10561638B2", "about": "“Methods for treating dependence” (Biotie Therapies, Inc., priority 2007, dated 2020)", "key": {"anesthetized SHRs": {"system": "anesthetized SHRs", "assay": "Acute i.v. treatment of anesthetized SHRs, blood pressure and renal function", "parameters": "species or system spontaneously hypertensive rats", "conditions": "rat, in vivo", "excerpt": "The calculated renal vascular resistance was decreased following dosing. An attempt was made using the DA-1 antagonist SCH-23390 to assess if the renal vasodilator effects of nepicastat were mediated by DA-1 receptors."}, "[1]": {"system": "spontaneous hypertensive rats", "assay": "SCH-23390 pretreatment study in restrained SHRs", "type": "in vivo", "conditions": "SCH-23390 200 μg/kg iv; nepicastat 10 mg/kg po", "excerpt": "Male, spontaneous hypertensive rats (280-345 g; Charles River Labs, Kingston, N.Y.) were fasted overnight then anesthetized with ether. A femoral artery and femoral vein were cannulated with PE50 tubing for recording of blood pressure and administration of compounds, respectively. Animals were then placed in MAYO restrainers and their feet loosely taped to the restrainer. Heparinized saline (50 units sodium heparin/ml) was used to maintain patency of each cannula throughout the experiment. The following parameters were continuously recorded using Modular Instruments MI^2 BioReport™ software installed on an IBM personal computer: mean arterial pressure (MAP), heart rate (HR), and the change from baseline for each parameter at specified time points in the experiment.\nAll compounds were dissolved on the day of use. […]\nFollowing surgical preparation, each animal was allowed a minimum one hour recovery period. […] Once animals were stabilized (minimum one hour), baseline blood pressure and heart rate was determined by taking an average of each parameter over a 15 min period of time. […]\nRecorded parameters were measured 15 min prior to intravenous dosing to establish baseline blood pressure and heart rate. Recorded parameters were then measured at 5, 10, and 15 min following intravenous administration of SCH-23390 or vehicle. […]"}}, "note": "For at least one compound, name, drawing or mass did not settle the structure."}
{"compound": "CN1CCc2cc(Cl)c(O)cc2[C@@H](c2ccccc2)C1", "note": "[SCH-23390, reference compound]", "values": [{"measurement": "blood pressure, SCH-23390 alone", "setting": "anesthetized SHRs", "result": "reduced blood pressure when given alone"}, {"measurement": "heart rate vs vehicle", "setting": "[1]", "result": "significant decrease (p<0.05) in heart rate"}]}
